Reference: patent publication US6420352B1, “Hair loss prevention” (priority 2000, dated 2002)

Experiment: Testing of skin penetration enhancers

COC(C)=O [methyl acetate]
suitability as penetration enhancer: acceptable

dimethyl acetate
suitability as penetration enhancer: weak penetration enhancer
